Data taken from ChEMBL document CHEMBL3988442, “University of Dundee, Small-Polar-MMV Screening Library” (2021).

By UniProt entry, the sequences of proteins in these tests, tags left out.
UniProt E9BF75, entry or part of it: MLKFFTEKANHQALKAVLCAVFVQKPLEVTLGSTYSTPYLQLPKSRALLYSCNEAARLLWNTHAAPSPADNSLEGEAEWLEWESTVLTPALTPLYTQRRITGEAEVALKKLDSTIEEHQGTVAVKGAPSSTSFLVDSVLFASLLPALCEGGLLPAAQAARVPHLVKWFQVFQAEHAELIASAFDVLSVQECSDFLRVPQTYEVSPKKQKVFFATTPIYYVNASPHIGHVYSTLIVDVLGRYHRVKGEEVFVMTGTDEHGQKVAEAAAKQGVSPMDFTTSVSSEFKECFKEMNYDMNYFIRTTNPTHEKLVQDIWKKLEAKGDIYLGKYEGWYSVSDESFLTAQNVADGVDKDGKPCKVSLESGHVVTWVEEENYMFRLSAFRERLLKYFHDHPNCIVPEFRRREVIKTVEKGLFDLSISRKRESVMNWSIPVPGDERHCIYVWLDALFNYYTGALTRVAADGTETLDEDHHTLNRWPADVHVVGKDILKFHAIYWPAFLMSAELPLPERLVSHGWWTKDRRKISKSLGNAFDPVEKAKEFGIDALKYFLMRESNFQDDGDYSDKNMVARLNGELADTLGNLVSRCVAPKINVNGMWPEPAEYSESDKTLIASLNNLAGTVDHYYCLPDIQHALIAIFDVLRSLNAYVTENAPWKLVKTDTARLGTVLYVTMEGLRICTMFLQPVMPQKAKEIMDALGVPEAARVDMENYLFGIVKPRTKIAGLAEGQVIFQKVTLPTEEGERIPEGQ

Results are percentages, as filed.
The record does not define 0% and 100%; most values in the screen are far below 50% and negative numbers occur (in some assays of this library far below -100).
Compounds were drawn at random from those tested, without regard to their results.
A dash means the value is not listed here; it may have been measured.

Mtb heat-shock: 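Assay on Mycobacterium tuberculosis, filed only as a heat shock assay from Cornell; the read-out is not stated. The concentration is filed as 10 mM, unlikely as a test dose, so the dose is not known. The record gives no direction; compounds that gave an IC50 in retests scored well above the rest, so higher reads as stronger inhibition. About 69,000 compounds were tested under these conditions; 1.4% (about 930) showed 50% or more at least once.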
LdMetRS: 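Primary screen of methionyl-tRNA synthetase; the read-out is not stated. Target: Methionyl-tRNA synthetase (putative), Leishmania donovani (UniProt E9BF75). The test concentration is not given. The values are filed as inhibition. Of about 68,000 compounds tested this way, about 24 (0.035%) reached 50% or more in at least one test.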
Mtb growth Cornell: 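Whole-cell assay for inhibitors of Mycobacterium tuberculosis growth, labelled Cornell in the record; the read-out is not stated. The concentration is filed as 10 mM, unlikely as a test dose, so the dose is not known. The record gives no direction; compounds strong in two other growth screens of this library score well above the rest, so higher reads as stronger inhibition. About 53,000 compounds were tested under these conditions; 1.7% (about 900) showed 50% or more at least once.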

| Compound | Mtb heat-shock | LdMetRS | Mtb growth Cornell |
|---|---|---|---|
| `CC(C)N(C)CC(=O)Nc1nccn1Cc1ccccc1Cl` | 70.24 | 11.76 | 5.498 |
| `Cc1nnc(CN2CCCC2c2ccc3c(c2)OCCCO3)n1C` (centres unmarked) | 13.07 | 15.6 | -7.948 |
| `O=C(O)C(F)(F)F.O=S(=O)(C1CC1)N1CC[C@@H](OCC2CC2)[C@@H]1Cc1ccncc1` | -0.7958 | - | 11.45 |
| `CN(C)CC1CN(Cc2c(Cl)ccc3cccnc23)CCO1` (centres unmarked) | -31.88 | 7.018 | 21.14 |
| `Cc1occc1C(=O)N1CCC2(CCCN(CC3CC3)C2=O)C1` (centres unmarked) | 8.869 | 4.301 | 30.83 |
| `CC(C)(O)CCc1cccc(C(=O)NCC2CN(S(C)(=O)=O)CCO2)c1` (centres unmarked) | -33.41 | 5.861 | - |
| `CC(=O)N1CC[C@H]2OCC[C@@]2(C(=O)NCc2cnc(C)cn2)C1` | - | 5.168 | - |
| `O=C(N1CCCC1)N1CCN(Cc2cccnc2)c2ncccc2C1` | - | 14.52 | - |
| `[H][C@@]12CCN(Cc3ccccn3)C[C@@]1([H])O[C@@H](C)C2` | 1.177 | - | 5.005 |
| `CC1CN(Cc2nc(Cc3ccccc3F)no2)CCN1C` (centres unmarked) | -18.53 | 11.17 | 23.52 |
| `[H][C@@]12CN(c3ncc(F)cn3)C[C@@]1([H])N(CCN(C)C)C(=O)CO2` | 0.9635 | - | 27.24 |
| `CCc1nc(C2CCCN(c3ncc(Br)cn3)C2)no1` (centres unmarked) | 22.3 | 8.397 | 8.98 |
| `Cc1ccc(C(=O)NCCS(=O)(=O)N2CCSCC2)n1C` | 5.885 | -11.17 | 16.79 |
| `Cc1nc(N2CCCC2)nc2c1CCN(C(=O)CN(C)C)CC2.O=C(O)C(F)(F)F` | -32.11 | - | 15.01 |
| `O=C(O)C(F)(F)F.[H][C@]12CC[C@@]3(N=C(C)N(CC(C)C)C3=O)[C@@]1([H])CN(CC(=O)N(C)C)C2` | -19.88 | - | - |
| `CSCCC(=O)N1CCC(CCC(=O)NCC2CCCO2)CC1` (centres unmarked) | 19.88 | 10.66 | - |
| `CC(C)=CCN1C(=O)[C@H]2CC[C@@H]1CN(C(=O)CCc1nc(Cl)n[nH]1)C2` | - | 15.23 | - |
| `CC1CN(C(=O)CN(Cc2ccccc2Cl)C2CCCC2)CCO1` (centres unmarked) | -12.49 | 9.392 | - |
| `COc1cccc(C(=O)N2CCOCC2CN(C)C)c1OC` (centres unmarked) | - | 11.54 | - |
| `CO[C@@H]1CN(c2ccccc2)S(=O)(=O)[C@@]12CCN(S(C)(=O)=O)C2` | -21.84 | -1.37 | -20.27 |
| `CCC(=O)N1Cc2nccn2CC(CN(C)Cc2cccnc2)C1` (centres unmarked) | - | 12.2 | - |
| `Cc1nn2c(-c3snnc3C)nnc2s1` | 0.6129 | -14.42 | -8.213 |
| `CCn1nc(C)c2ncnc(N3CCCC(C)C3)c21` (centres unmarked) | 0.6507 | 2.632 | 0.5192 |
| `CN(Cc1nnc(C2CC2)o1)CC1CCCN1c1cccnn1` (centres unmarked) | 16.59 | 15.14 | -39.22 |
| `CN(C)S(=O)(=O)N1CCC(c2n[nH]cc2-c2ccnc(N)c2)C1` (centres unmarked) | -1.874 | 0.3106 | -10.76 |
| `Clc1ccc(OCCc2cc(C3CCN(c4ncccn4)C3)n[nH]2)cc1` (centres unmarked) | 30.1 | 25.94 | 81.19 |
| `CN(C)S(=O)(=O)Nc1ccc(-n2nccc2C(F)(F)F)cc1` | -8.292 | 11.52 | 17.67 |
| `O=C(c1cccc(S(=O)(=O)NCCc2cscn2)c1)N1CCOCC1` | 0.2843 | 6.02 | 17.54 |
| `COc1ccccc1[C@@H]1CN(Cc2cnc(N(C)C)nc2)C[C@H]1C(=O)O` | -5.842 | 22.1 | 2.835 |
| `CC(C)n1cnnc1CNC(=O)CCCOc1ccccc1Cl` | -9.613 | -3.106 | - |
| `Cc1ccoc1C(=O)NC(CC(C)C)C(=O)N1CCC(CO)CC1` (centres unmarked) | -37.27 | -10.86 | - |
| `CC1CCCN(Cc2c(C3CC3)n(CC(=O)N(C)C)c3ncccc23)C1` (centres unmarked) | - | 0 | - |
| `Cc1ccc(-c2ccnc(N[C@H]3COC[C@@H]3N3CCCC3)n2)c(C)n1` | -9.627 | 8.04 | 15.45 |
| `Cc1ccc(F)c(OC2(C(=O)O)CCN(C(=O)c3ccco3)CC2)c1` | -33.47 | 3.546 | -4.937 |
| `Cc1csc(N2CCN(Cc3nnsc3Cl)CC2C)n1` (centres unmarked) | 12.38 | 10 | 45.54 |
| `Cc1ccc(S(=O)(=O)N2CC[C@@H]3C[C@H](NC(=O)c4ccncc4)[C@@H]32)cc1` | - | 4.984 | - |
| `COc1ccc(-c2noc([C@@H](C)NS(=O)(=O)CC(C)C)c2C(=O)O)cc1` | 1.27 | 7.119 | -12.78 |
| `CCN1C(=O)CC[C@]12CC[C@@H](NC(=O)c1cnccn1)CC2` | -17.9 | -8.403 | -10.43 |
| `Cc1cc(C(=O)NCc2cc(C)oc2C)no1` | 21.66 | 19.78 | 15.46 |
| `Cc1nc(C(C)NC(=O)COc2ccc(F)cc2)n[nH]1` (centres unmarked) | -7.323 | 13.17 | -23.44 |
| `[H][C@]12CC[C@]([H])(CN(C3CCOCC3)C1)N(C(=O)c1csc(C(C)C)n1)C2` | 40.76 | - | 8.609 |
| `CC(C)c1cc(N2CCC(NS(C)(=O)=O)C2)nc(C(C)C)n1` (centres unmarked) | 2.492 | 12.83 | 2.003 |
| `Cc1ccccc1Oc1ncccc1CNS(=O)(=O)N(C)C` | -10.74 | 14.18 | 4.015 |
| `OC1CCN(c2ccccc2NCc2nc(-c3cccs3)no2)CC1` | -17.19 | 19.93 | 45.19 |
| `CC(C)(O)CN1CCN(C(=O)COCc2ccccc2Cl)CC1` | 21.47 | 8.743 | - |
| `O=C(CCN1CCCC1C1CCCCC1)N1CCc2sccc2C1` (centres unmarked) | 35.57 | 28.1 | 27.64 |
| `O=C(O)C(F)(F)F.[H][C@]12CCN(c3ncccn3)CC[C@@]1([H])S(=O)(=O)N(CC(C)C)C2` | 4.19 | - | 12.21 |
| `O=C(NCCOc1ccccc1)Nc1cc(C(F)(F)F)c[nH]c1=O` | 24.31 | 15.56 | - |
| `O=C(C1CCN(c2nc3nc[nH]c(=O)c3s2)CC1)N1CCCCC1` | 1.68 | 16.49 | 27.82 |
| `O=c1[nH]c(CCN2CCCC2Cn2cncn2)nc2ccccc12` (centres unmarked) | 48.51 | 9.639 | - |
| `[H][C@@]12CCN(C(=O)Cc3cccc(F)c3)C[C@]1(COC)CCO2` | -5.659 | - | -21.03 |
| `Cc1ccc(C(=O)NCC2Cc3ccccc3O2)cc1S(C)(=O)=O` (centres unmarked) | -5.267 | 12.37 | 16.1 |
| `COC[C@@]12CC[C@@H](N3CCOCC3)C[C@H]1CCN(c1ncccc1Cl)C2` | - | 12.59 | - |
| `Cc1nnc(C[C@@H]2COC[C@H]3CN(C(=O)c4ccco4)C[C@@H]23)o1` | - | 10.14 | - |
| `CN(CC(=O)N1CCN(c2ccccn2)CC1)c1ccc(Cl)cn1` | 3.288 | 9.645 | - |
| `O=C1COc2cc(C(=O)NS(=O)(=O)c3cccc(Cl)c3)ccc2N1` | -8.455 | 10.86 | 7.801 |
| `CCCc1nnc2sc(C3CCN(CC)CC3)nn12` | -11.62 | 9.138 | - |
| `C1CC(c2noc(C3CC3)n2)CN(CCOCC2CC2)C1` (centres unmarked) | -23.5 | 7.023 | 9.184 |
| `CC1COCCN1C(=O)COc1cccc(Oc2ccccn2)c1` (centres unmarked) | -9.684 | 20.16 | 24.5 |
| `CS(=O)(=O)CCC(=O)N1C[C@@H]2CC[C@H](C1)N(Cc1ccccc1)C2=O` | - | 5.694 | - |
| `CC(C)OCCC(=O)Nc1cc(C(=O)N(C)C(C)C)ccc1Cl` | -26.69 | 0.9677 | -9.957 |
| `CC(C)(C)n1ncc2c1NC(=O)CSC2c1ccsc1` (centres unmarked) | -21.54 | 15.05 | 21.39 |

For reference, 6 entries once more:

Compound	Mtb heat-shock	LdMetRS	Mtb growth Cornell
[H][C@@]12CCN(C(=O)Cc3cccc(F)c3)C[C@]1(COC)CCO2	-5.659	-	-21.03
CO[C@@H]1CN(c2ccccc2)S(=O)(=O)[C@@]12CCN(S(C)(=O)=O)C2	-21.84	-1.37	-20.27
CS(=O)(=O)CCC(=O)N1C[C@@H]2CC[C@H](C1)N(Cc1ccccc1)C2=O	-	5.694	-
CC1COCCN1C(=O)COc1cccc(Oc2ccccn2)c1 (centres unmarked)	-9.684	20.16	24.5
CCN1C(=O)CC[C@]12CC[C@@H](NC(=O)c1cnccn1)CC2	-17.9	-8.403	-10.43
CC(C)OCCC(=O)Nc1cc(C(=O)N(C)C(C)C)ccc1Cl	-26.69	0.9677	-9.957